In the supplement of paper PMC12823440, “Inhibitors supercharge kinase turnover through native proteolytic circuits” (Nature, 2025):
This is one part of the list. The calls rarely recur for the same compound in another form.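 Kinases, fused to nanoluciferase, were expressed in K562 cells; luminescence was measured every 4 h from 2 to 18 h as percent of control (DMSO = 100%, positive control = 0%). A time point is decreased if signal falls significantly (2 sigma). Hits were called by the authors by a rule that is not shown; the count of time points alone does not decide it.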

Amino acid sequences for entries named in this document (tags omitted). A change or cut given only in a name is not applied to a line headed by its entry.
UniProt P49840: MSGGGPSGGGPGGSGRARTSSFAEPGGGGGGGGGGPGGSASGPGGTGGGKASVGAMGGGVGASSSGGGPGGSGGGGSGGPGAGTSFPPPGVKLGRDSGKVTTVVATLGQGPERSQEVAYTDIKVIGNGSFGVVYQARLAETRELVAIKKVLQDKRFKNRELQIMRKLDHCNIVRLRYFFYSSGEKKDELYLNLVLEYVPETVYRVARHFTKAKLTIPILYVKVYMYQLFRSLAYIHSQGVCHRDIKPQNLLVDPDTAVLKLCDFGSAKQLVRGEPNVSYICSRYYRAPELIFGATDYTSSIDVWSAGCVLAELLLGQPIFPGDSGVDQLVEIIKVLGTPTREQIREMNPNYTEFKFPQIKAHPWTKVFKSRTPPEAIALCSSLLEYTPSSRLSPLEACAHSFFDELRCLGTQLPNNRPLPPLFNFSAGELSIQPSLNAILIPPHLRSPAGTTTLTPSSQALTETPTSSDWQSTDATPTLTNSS

biological target: GSK3A (UniProt P49840); assay: number of time points (of 5) at which kinase-Nluc abundance scored as decreased, DMSO-normalised (count); higher = more persistent destabilization; conditions: K562; 2-18 h

Row | SMILES | number of time points
1 | CCS(=O)(=O)c1ccc(Oc2cc(O[C@@H](C)CO)cc(C(=O)Nc3ccn(C)n3)c2)cn1 (10 µM) | 0
2 | O=C1C(=Cc2ccc(O)c(O)c2)Oc2ccccc21 (2.5 µM) | 0
3 | CN(C)CCCNc1ccn2ncc(-c3ccc4c(c3)OCO4)c2n1 (10 µM) | 0
4 | COc1ccc(C(=O)c2cn(C(C)C)c3ncnc(N)c23)cc1NC(=O)Nc1ccc(Cl)cc1Cl (10 µM) | 0
5 | C[C@@H]1CN(Cc2cn[nH]c2-c2ccc(C#N)cc2)CCN1c1ccc(C(F)(F)F)cn1 (2.5 µM) | 0
6 | O=C1c2c(O)cc(O)cc2O[C@H](c2cc(O)c(O)c(O)c2)[C@H]1O [Dihydromyricetin] (10 µM) | 0
7 | C=CC(=O)N[C@H]1CCOC[C@H]1Nc1ncc2cc(-c3c(Cl)c(OC)cc(OC)c3Cl)ccc2n1 [Fisogatinib] (10 µM) | 0
8 | CC(C)(O)c1cc(Nc2cc(Oc3cn(C4CC4)nc3C3CCOCC3)ccn2)ccn1 (10 µM) | 0
9 | CC[C@H](C)[C@@H]1NC(=O)[C@@H]2CCCN2C(=O)[C@@H]2CCCN2C(=O)[C@@H]2CCCN2C(=O)[C@H](CC(C)C)NC(=O)CNC(=O)CNC(=O)[C@H](Cc2ccccc2)NC1=O [Heterophyllin B] (10 µM) | 0
10 | COc1cc(-c2cnc(N)c(-c3ccc(NC(=O)c4cn(CC5CCOCC5)cc(-c5ccc(C)cn5)c4=O)cc3F)c2)ccc1OC[C@H]1COCCO1 [DS-1205b (free base)] (10 µM) | 0
11 | C=CC(=O)Nc1cccc(Nc2nc(Nc3ccc(Oc4ccnc(C(=O)NC)c4)cc3)ncc2F)c1 (2.5 µM) | 0

Sorted by formula weight (falling): part of the list above.
Row | SMILES | number of time points
4 | COc1ccc(C(=O)c2cn(C(C)C)c3ncnc(N)c23)cc1NC(=O)Nc1ccc(Cl)cc1Cl (10 µM) | 0
7 | C=CC(=O)N[C@H]1CCOC[C@H]1Nc1ncc2cc(-c3c(Cl)c(OC)cc(OC)c3Cl)ccc2n1 [Fisogatinib] (10 µM) | 0
1 | CCS(=O)(=O)c1ccc(Oc2cc(O[C@@H](C)CO)cc(C(=O)Nc3ccn(C)n3)c2)cn1 (10 µM) | 0
